From paper PMC6117268
These are yes or no findings as the source states them, for the method shown. For some of these results: In cells and extracts the contact can be indirect. Some entries that bind do so weakly or less than the wild type.

Protein sequences, listed by entry. Tags and fused reporters are not part of them. Lines headed by an entry give the natural chain unless they say otherwise; changes in a name come on top.
UniProt Q13887: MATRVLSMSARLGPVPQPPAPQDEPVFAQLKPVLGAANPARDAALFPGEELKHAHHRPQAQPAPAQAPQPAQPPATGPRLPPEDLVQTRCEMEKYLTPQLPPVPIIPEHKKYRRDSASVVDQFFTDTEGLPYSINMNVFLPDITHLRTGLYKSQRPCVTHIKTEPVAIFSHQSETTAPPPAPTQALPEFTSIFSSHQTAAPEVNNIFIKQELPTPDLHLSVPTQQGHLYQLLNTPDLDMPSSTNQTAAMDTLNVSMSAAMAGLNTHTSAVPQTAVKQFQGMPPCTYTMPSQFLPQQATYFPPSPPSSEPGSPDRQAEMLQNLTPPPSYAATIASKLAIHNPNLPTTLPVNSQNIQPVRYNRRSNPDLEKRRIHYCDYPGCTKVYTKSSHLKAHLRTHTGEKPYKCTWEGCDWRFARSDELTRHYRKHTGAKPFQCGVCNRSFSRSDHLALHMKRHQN
UniProt Q92830: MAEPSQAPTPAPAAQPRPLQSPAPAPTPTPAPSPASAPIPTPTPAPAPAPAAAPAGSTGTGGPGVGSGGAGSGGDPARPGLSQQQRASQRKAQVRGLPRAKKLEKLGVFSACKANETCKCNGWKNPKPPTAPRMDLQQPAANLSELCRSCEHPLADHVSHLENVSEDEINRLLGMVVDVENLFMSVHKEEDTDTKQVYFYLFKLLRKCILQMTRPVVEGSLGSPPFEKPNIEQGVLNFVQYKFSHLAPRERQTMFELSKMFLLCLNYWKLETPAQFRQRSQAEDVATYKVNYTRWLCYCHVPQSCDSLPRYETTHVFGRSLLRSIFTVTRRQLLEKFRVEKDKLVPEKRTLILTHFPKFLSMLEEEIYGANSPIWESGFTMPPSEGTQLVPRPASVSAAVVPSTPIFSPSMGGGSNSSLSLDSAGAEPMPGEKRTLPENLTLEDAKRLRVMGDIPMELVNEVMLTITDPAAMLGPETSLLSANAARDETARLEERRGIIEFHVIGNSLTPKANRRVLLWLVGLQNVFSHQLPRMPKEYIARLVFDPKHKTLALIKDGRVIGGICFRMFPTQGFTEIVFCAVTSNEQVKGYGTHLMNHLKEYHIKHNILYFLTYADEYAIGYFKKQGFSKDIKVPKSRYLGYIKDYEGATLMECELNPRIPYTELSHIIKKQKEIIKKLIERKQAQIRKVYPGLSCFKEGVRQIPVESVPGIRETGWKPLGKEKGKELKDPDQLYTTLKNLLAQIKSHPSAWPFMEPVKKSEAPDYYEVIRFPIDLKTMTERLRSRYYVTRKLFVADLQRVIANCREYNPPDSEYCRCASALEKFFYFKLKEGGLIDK

What was measured:
[1] = target: kruppel-like factor 5 (KLF5), endogenous in A549 cells (human (endogenous in A549)) (UniProt Q13887); assay: co-IP; A549 cell extract precleared with protein G-Sepharose and pre-immune IgG, IP with antibodies against KLF5 and GCN5, immunoblot; level adjusted to precipitated total KLF5; cells treated with C5a (0 to 6 h), C5aR inhibitor W54011, anti-C5a, pIRES2-GCN5, shGCN5, TSA and NAM
[2] = target: recombinant his-tagged GCN5 (human) (UniProt Q92830); assay: pull-down; his-GCN5 (5 μg) held on cobalt-coated magnetic beads, flag-KLF5 (5 μg) added for 1 h; pulldown buffer 3.25 mM sodium-phosphate, 70 mM NaCl, 0.01% Tween-20; SDS-PAGE and coomassie blue staining; both purified
[3] = target: kruppel-like factor 5 (KLF5), endogenous in A549 cells (human (endogenous in A549)) (UniProt Q13887); assay: ChIP and Re-ChIP; A549 cells stimulated with C5a for 3 h; ChIP and second round of immunoprecipitation with anti-KLF5 and anti-GCN5 antibodies, real-time PCR of the GDF15 promoter (−103 to +58 nt)

binding [1] | binding [2] | binding [3] | Substance
binds | – | – | GCN5 overexpressed from pIRES2-GCN5 (from UniProt Q92830-1 1-837) (enzyme)
– | binds | – | flag-tagged KLF5, purified (from UniProt Q13887-1 1-457)
binds | – | binds | general control non-depressible (GCN5), endogenous in A549 cells (from UniProt Q92830 1-837) (enzyme)
